Measured values taken from paper PMC6565618.
Results are given in words; binding and its absence hold for the method and conditions named. For part of these data: In cells and extracts the contact can be indirect. Some binding calls cover weakened binding; strength is not graded here.

Tests used:
[1] = biological target: human DJ-1 mutant M3 (A104T), with Myc and DDK (Flag) tags on the C-terminus (human) (UniProt Q99497); test: co-IP; extracts of HEK293 / HEK-293T cells expressing flag-tagged WT or mutant DJ-1; beads conjugated to anti-FLAG antibody; western blot for endogenous ATP synthase β-subunit; extraction buffer 0.1 M NaCl, 20 mM HEPES pH 7.5, 0.3% Triton X-100, 4 °C
[2] = biological target: human DJ-1 mutant M4 (D149A), with Myc and DDK (Flag) tags on the C-terminus (human) (UniProt Q99497); test: as above
[3] = biological target: human DJ-1 mutant M5 (L166P), with Myc and DDK (Flag) tags on the C-terminus (human) (UniProt Q99497); test: as above
[4] = biological target: human DJ-1, wild type, with Myc and DDK (Flag) tags on the C-terminus (human) (UniProt Q99497); test: as above
[5] = biological target: human DJ-1, wild type, with Myc and DDK (Flag) tags on the C-terminus (human) (UniProt Q99497); test: co-IP; in vitro IP: purified flag-ATP synthase β-subunit incubated with purified DJ-1, mixture immunoprecipitated with anti-DJ-1 antibody, western blot; both purified
[6] = biological target: human DJ-1 mutant M3 (A104T), with Myc and DDK (Flag) tags on the C-terminus (human) (UniProt Q99497); test: co-IP; co-immunoprecipitation of DJ-1 (WT and mutants expressed in HEK 293T cells) and Bcl-xL (Fig. S1b); who was precipitated is not told
[7] = biological target: human DJ-1 mutant M4 (D149A), with Myc and DDK (Flag) tags on the C-terminus (human) (UniProt Q99497); test: as above
[8] = biological target: human DJ-1 mutant M5 (L166P), with Myc and DDK (Flag) tags on the C-terminus (human) (UniProt Q99497); test: as above
[9] = biological target: human DJ-1, wild type, with Myc and DDK (Flag) tags on the C-terminus (human) (UniProt Q99497); test: as above

Measured: binding

endogenous ATP synthase β-subunit (from UniProt P06576 48-529)
binds: [1] | [2] | [3] | [4]

purified recombinant FLAG-tagged ATP synthase β subunit protein (human ATP5B with Myc and DDK tags on the C-terminus) (from UniProt P06576 48-529)
binds: [5]

Bcl-xL (from UniProt Q07817-1 1-233)
binds: [6] | [7] | [8] | [9]
